Test results as given in patent publication US7094894B2, “Fungicidal triazolopyrimidines, method for the production thereof, use thereof for controlling harmful fungi, and agents containing said fungicidal triazolopyrimidines” (BASF Aktiengesellschaft, priority 2002, dated 2006).
Some results were stated once for a whole list of compounds, not compound by compound.

What was measured:
Alternaria solani = test: Activity against early blight of tomato caused by Alternaria solani; type: in vivo; settings: 250 ppm, tomato leaves sprayed to runoff one day before infection, assessed visually after 5 days; untreated plants 90% infected
[1] = system: Pyrenophora [syn. Drechslera] teres; test: Activity against net blotch of barley caused by Pyrenophora teres; type: in vivo; settings: 250 ppm, barley seedlings sprayed 24 hours before inoculation, assessed visually after 6 days; untreated plants 100% infected

SMILES	infection (Alternaria solani)	infection of the total leaf area [1]
Cc1ccc(-c2c(C)nc3ncnn3c2N2CCC(C)CC2)c(F)c1 [I-17, 5-methyl-6-(2-fluoro-4-methylphenyl)-7-(4-methylpiperidin-1-yl)-[1,2,4]triazolo[1,5-a]pyrimidine]	not more than 3%	
Cc1ccc(-c2c(Cl)nc3ncnn3c2NC(C)C)c(F)c1 [I-2, 5-chloro-6-(2-fluoro-4-methylphenyl)-7-isopropylamino-[1,2,4]triazolo[1,5-a]pyrimidine]	not more than 3%	≤ 7%
